# Laboratory results from PubChem BioAssay AID1487 (National Center for Advancing Translational Sciences (NCATS), 2009).
# This is one part of the list. The main result of the screen is listed elsewhere. These columns were measured beside it and carry no call. The list favours compounds with an active or inconclusive main result. Words in brackets tell the shape of the fitted curve; partial curves, single points and poor fits give uncertain potencies.
# Experiment: qHTS Assay for Modulators of Lamin A Splicing
# Settings: HeLa LMNA splicing GFP/RFP minigene ratio, 48 h
# How it was run: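 Read-out is the ratio of GFP to DsRed2 object intensity, acquired by 488 nm laser-scanning cytometry on HeLa lamin A-EGFP minigene reporter cells. Compound incubation 48 hrs at 37 °C in Opti-MEM with 2% FBS; DMSO 0.5% final.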
# [1] = measured here: GFP splicing reporter channel
# [2] = measured here: RFP viability control channel
SMILES,AC50 [1],AC50 [2]
CCc1nc2ccc(C(=O)NCc3ccc(N(C)C)cc3)cc2nc1CC,"6.31 µM [rising, partial curve, poor fit]",
CCc1cc(C(=O)NNC(=S)Nc2cc(C)ccc2C)cs1,,"35.5 µM [rising, single point]"
O=C1S/C(=C/c2ccccc2)C(=O)N1CC(O)Cn1c2ccccc2c2ccccc21 (stereo unspecified),,"10 µM [rising, partial curve, poor fit]"
CN(C)CCNC(=O)CN1N=C(c2ccccc2)CCC1=O,"4.47 µM [rising, partial curve, poor fit]","0.00398 µM [rising, full curve, poor fit]"
OC(COCC(F)(F)C(F)(F)C(F)(F)C(F)F)Cn1c2ccc(Cl)cc2c2cc(Cl)ccc21 (stereo unspecified),"20 µM [falling, single point]",
O=C(O)c1ccccn1,,"35.5 µM [falling, single point]"
Cc1ccc(-c2csc(NC(=O)CSc3nc4ccccc4[nH]3)n2)cc1,,"22.4 µM [rising, single point]"
Cc1c(N=CN2CCOCC2)c(=O)n(C)c(=O)n1C,"0.0112 µM [rising, full curve, poor fit]","0.0126 µM [rising, full curve, poor fit]"
Cc1sc2ncnc(N3CCN(c4ncccn4)CC3)c2c1C,,"20 µM [rising, single point]"
CNC(=S)N/N=C/c1cn(CCOc2ccc(OC)cc2)c2ccccc12,,"2.24 µM [rising, partial curve]"
O/N=C/c1cc(Cl)ccc1OCc1cccc2ccccc12,"17.8 µM [falling, partial curve]","15.8 µM [falling, partial curve]"
c1nnc(-c2ccc3c(c2)OCO3)o1,"1.26 µM [rising, partial curve, poor fit]","1.26 µM [rising, single point]"
CC(C)C(c1nnnn1C1CCCC1)N1CCN(c2ccccc2F)CC1 (stereo unspecified),"11.2 µM [falling, partial curve, poor fit]",
Cc1cc(Br)c(S(=O)(=O)NCCN2CCOCC2)cc1C,"35.5 µM [rising, single point]",
COc1ccccc1OCCn1c(C(C)O)nc2ccccc21 (stereo unspecified),"10 µM [rising, partial curve, poor fit]","10 µM [rising, partial curve]"
Cc1nn(-c2ccc(N3CCOCC3)nn2)c(C)c1CCC(=O)NCc1ccccc1,"0.02 µM [falling, full curve, poor fit]",

# Arranged by molecular weight (low to high): 3 of the compounds above
SMILES,AC50 [1],AC50 [2]
O/N=C/c1cc(Cl)ccc1OCc1cccc2ccccc12,"17.8 µM [falling, partial curve]","15.8 µM [falling, partial curve]"
Cc1ccc(-c2csc(NC(=O)CSc3nc4ccccc4[nH]3)n2)cc1,,"22.4 µM [rising, single point]"
O=C1S/C(=C/c2ccccc2)C(=O)N1CC(O)Cn1c2ccccc2c2ccccc21 (stereo unspecified),,"10 µM [rising, partial curve, poor fit]"
